First the molecules themselves.
B1: Cntnap1 (protein, UniProt O54991 21-1385)
chain: WGYYGCNEELVGPLYARSLGASSYYGLFTTARFARLHGISGWSPRIGDPNPWLQIDLMKKHRIRAVATQGAFNSWDWVTRYMLLYGDRVDSWTPFYQKGHNATFFGNVNDSAVVRHDLHYHFTARYIRIVPLAWNPRGKIGLRLGIYGCPYTSSILYFDGDDAISYRFQRGASQSLWDVFAFSFKTEEKDGLLLHTEGSQGDYVTLELQGAHLLLHMSLGSSPIQPRPGHTTVSLGGVLNDLSWHYVRVDRYGRDANFTLDGYAHHFVLNGDFERLNLENEIFIGGLVGAARKNLAYRHNFRGCIENVIYNRINIAEMAVMRHSRITFEGNVAFRCLDPVPHPINFGGPHNFVQVPGFPRRGRLAVSFRFRTWDLTGLLLFSHLGDGLGHVELMLSEGQVNVSIAQTGRKKLQFAAGYRLNDGFWHEVNFVAQENHAVISIDDVEGAEVRVSYPLLIRTGTSYFFGGCPKPASRWGCHSNQTAFHGCMELLKVDGQLVNLTLVEFRKLGYFAEVLFDTCGITDRCSPNMCEHDGRCYQSWDDFICYCELTGYKGVTCHEPLYKESCEAYRLSGKYSGNYTIDPDGSGPLKPFVVYCDIRENRAWTVVRHDRLWTTRVTGSSMDRPFLGAIQYWNASWEEVSALANASQHCEQWIEFSCYNSRLLNTAGGYPYSFWIGRNEEQHFYWGGSQPGIQRCACGLDQSCVDPALHCNCDADQPQWRTDKGLLTFVDHLPVTQVVVGDTNRSNSEAQFFLRPLRCYGDRNSWNTISFHTGAALRFPPIRANHSLDVSFYFRTSAPSGVFLENMGGPFCRWRRPYVRVELNTSRDVVFAFDIGNGDENLTVHSDDFEFNDDEWHLVRAEINVKQARLRVDHRPWVLRPMPLQTYIWLVYDQPLYVGSAELKRRPFVGCLRAMRLNGVTLNLEGRANASEGTFPNCTGHCTHPRFPCFHGGRCVERYSYYTCDCDLTAFDGPYCNHDIGGFFETGTWMRYNLQSALRSAAREFSHMLSRPVPGYEPGYVPGYDTPGYVPGYHGPGYRLPEYPRPGRPVPGYRGPVYNVTGEEVSFSFSTNSAPAVLLYVSSFVRDYMAVLIKEDGTLQLRYQLGTSPYVYQLTTRPVTDGQPHSVNITRVYRNLFIQVDYFPLTEQKFSLLVDSQLDSPKALYLGRVMETGVIDPEIQRYNTPGFSGCLSGVRFNNVAPLKTHFRTPRPMTAELAEAMRVQGELSESNCGAMPRLVSEVPPELDPWYLPPDFPYYHDDGWIAILLGFLVAFLLLGLVGMLVLFYLQNHRYKGSYHTNEPKATHDSHPGGKAPLPPSGPAQAPAPTPAPTQLPTPAPAPAPAPASGPGPRDQNLPQILEESRSE
B2: Cnp (protein, UniProt P16330 1-420)
chain: MNTSFTRKSHTFLPKLFFRKMSSSGAKEKPELQFPFLQDEDTVATLHECKTLFILRGLPGSGKSTLARLILEKYHDGTKMVSADAYKIIPGSRADFSEAYKRLDEDLAGYCRRDIRVLVLDDTNHERERLDQLFEMADQYQYQVVLVEPKTAWRLDCAQLKEKNQWQLSADDLKKLKPGLEKDFLPLYFGWFLTKKSSETLRKAGQVFLEELGNHKAFKKELRHFISGDEPKEKLELVSYFGKRPPGVLHCTTKFCDYGKAAGAEEYAQQEVVKRSYGKAFKLSISALFVTPKTAGAQVVLTDQELQLWPSDLDKPSASEGLPPGSRAHVTLGCAADVQPVQTGLDLLDILQQVKGGSQGEAVGELPRGKLYSLGKGRWMLSLTKKMEVKAIFTGYYGKGKPVPIHGSRKGGAMQICTII
B3: gephyrin (protein, UniProt Q8BUV3 1-769)
chain: MATEGMILTNHDHQIRVGVLTVSDSCFRNLAEDRSGINLKDLVQDPSLLGGTISAYKIVPDEIEEIKETLIDWCDEKELNLILTTGGTGFAPRDVTPEATKEVIEREAPGMALAMLMGSLNVTPLGMLSRPVCGIRGKTLIINLPGSKKGSQECFQFILPALPHAIDLLRDAIVKVKEVHDELEDLPSPPPPLSPPPTTSPHKQTEDKGVQCEEEEEEKKDSGVASTEDSSSSHITAAALAAKIPDSIISRGVQVLPRDTASLSTTPSESPRAQATSRLSTASCPTPKQIRRPDESKGVASRVGSLKARLPSCSSTYSVSEVQSRCSSKENILRASHSAVDITKVARRHRMSPFPLTSMDKAFITVLEMTPVLGTEIINYRDGMGRVLAQDVYAKDNLPPFPASVKDGYAVRAADGPGDRFIIGESQAGEQPTQTVMPGQVMRVTTGAPIPCGADAVVQVEDTELIRESDDGTEELEVRILVQARPGQDIRPIGHDIKRGECVLAKGTHMGPSEIGLLATVGVTEVEVNKFPVVAVMSTGNELLNPEDDLLPGKIRDSNRSTLLATIQEHGYPTINLGIVGDNPDDLLNALNEGISRADVIITSGGVSMGEKDYLKQVLDIDLHAQIHFGRVFMKPGLPTTFATLDIDGVRKIIFALPGNPVSAVVTCNLFVVPALRKMQGILDPRPTIIKARLSCDVKLDPRPEYHRCILTWHHQEPLPWAQSTGNQMSSRLMSMRSANGLLMLPPKTEQYVELHKGEVVDVMVIGRL
B4: Golga2 (protein, UniProt Q921M4 1-999)
chain: MWPPRFPPPRPGMSEETRQSKLAAAKKKLREYQQKNSPGVPAGAKKKKKIKNGHSPERPTASDCQSPENVPTDHIAPAPPTAATDTMFLGVTPSPDADLTQSHDAGNCSNLMEETKTFSSTESLRQLSQQLNGLVSESTSYINGEGLTSSNMKELENRYQELAVALDSSYVTNKQLSSTIEELKQQNQDTLDQLEKEKKDYQQKLAKEQGSLREQLQVHIQTIGILVSEKAELQTALAHTQQAARQKAGESEDLASRLQSSRQRVGELERTLSTVSTQQKQADRYNKDLTKERDALKLELYKNSKSNEDLRQQNSELEEKLRVLVAEKAAAQLGVEELQKKLEMSELLLQQFSSQSSAAGGNEQLQHAMEERAQLETHVSQLMESLKQLQVERDQYAENLKGESAMWQQRVQQMAEQVHTLKEEKEHRERQVQELETSLAALRSQMEEPPPPEPPAGPSEAEEQLQGEVEQLHKELERLTGQLRAQVQDNESLSHLNREQEGRLLELEREAQRWSEQAEERKQILESMQSDRTTISRALSQNRELKEQLAELQNGFVRLTNENMEITSALQSEQHVKKELARKLGELQERLGELKETVELKSQEAQGLQEQRDQCLSHLQQYAAAYQQHLAAYEQLTSEKEAIHKQLLLQTQLMDQLQHEEVQGKMAAELARQELQEAQERLKATSQENQQLQAQLSLLVLPGEGDVDQEEEDEEVPQSSLAIPEDLDSREAMVAFFNAAIARAEEEQARLRVQLKEQKARCRSLSHLAAPVQSKLEKEAVVPRNVDDSASEESNQALHVAMEKLQSRFLEVMQEKVELKERVEELEHCCIQLSGETDTIGEYIALYQNQRAVLKARHLEKEEYISRLAQDKEEMKVKLLELQELVLRLVNERNEWQGKFLAVSQNPGDVLTPVPTGSQEFGAADQQDDLREVSLADDIEPAQGEAGVPAPHENPTAQQIMQLLREIQNPRERPGLGSNPCIPFFYRADENDEVKIMVV
B5: Cntn1 (protein, UniProt P12960 21-1001)
chain: DFTWHRRYGHGVSEEDKGFGPIFEEQPINTIYPEESLEGKVSLNCRARASPFPVYKWRMNNGDVDLTNDRYSMVGGNLVINNPDKQKDAGVYYCLASNNYGMVRSTEATLSFGYLDPFPPEERPEVKVKEGKGMVLLCDPPYHFPDDLSYRWLLNEFPVFITMDKRRFVSQTNGNLYIANVESSDRGNYSCFVSSPSITKSVFSKFIPLIPIPERTTKPYPADIVVQFKDIYTMMGQNVTLECFALGNPVPDIRWRKVLEPMPSTAEISTSGAVLKIFNIQLEDEGLYECEAENIRGKDKHQARIYVQAFPEWVEHINDTEVDIGSDLYWPCIATGKPIPTIRWLKNGYSYHKGELRLYDVTFENAGMYQCIAENAYGSIYANAELKILALAPTFEMNPMKKKILAAKGGRVIIECKPKAAPKPKFSWSKGTEWLVNSSRILIWEDGSLEINNITRNDGGIYTCFAENNRGKANSTGTLVITNPTRIILAPINADITVGENATMQCAASFDPALDLTFVWSFNGYVIDFNKEITHIHYQRNFMLDANGELLIRNAQLKHAGRYTCTAQTIVDNSSASADLVVRGPPGPPGGLRIEDIRATSVALTWSRGSDNHSPISKYTIQTKTILSDDWKDAKTDPPIIEGNMESAKAVDLIPWMEYEFRVVATNTLGTGEPSIPSNRIKTDGAAPNVAPSDVGGGGGTNRELTITWAPLSREYHYGNNFGYIVAFKPFDGEEWKKVTVTNPDTGRYVHKDETMTPSTAFQVKVKAFNNKGDGPYSLVAVINSAQDAPSEAPTEVGVKVLSSSEISVHWKHVLEKIVESYQIRYWAGHDKEAAAHRVQVTSQEYSARLENLLPDTQYFIEVGACNSAGCGPSSDVIETFTRKAPPSQPPRIISSVRSGSRYIITWDHVVALSNESTVTGYKILYRPDGQHDGKLFSTHKHSIEVPIPRDGEYVVEVRAHSDGGDGVVSQVKISGVSTLS
B6: Synpo (protein, UniProt Q8CC35 1-929)
chain: MLGAHFPPPPLGASEGRAAPCTFQIPDGSYRCLALEAEESSSEDGLQGEVRLVDLEEEGTSQSRANHGTPPLSRAPAIIQPSSCHREARGGFQRSDRPSHDWDVVQARKVMTASGSSSPVPRVAQKPALGRSTSFTENDLKEAKARSQQIAAQLTTPPSSNSRGVQLFNRRRQRVNEFTLESRGQRSPKLNQEALQTGRPLSPIGHAPGPSVKPTSPSKPGSPKHPSPQSPSRGVAGHIMEGYSEEASLLRHLEKVASEEEEVPLVVYLKENAALLTANGLHLSQSRETQQSSPNPPDTEVPSPAADINQNPSSPNATLTTLASSSHHSQPTADINQNPPAAITPVPQNSSQAQCSPNGTLDSKPGTLCADDGQSPVPAEEVRSSILLIDKVSAPPSAASTFSREATPLSSSGPPAADLMSSSLLIDMQPSTLVAPAEQEVPGHVAVTTPTKVYSEVHLTLAKPASVVNRTARPFGIQSPGTSQIEQSPMMGRRQFGEKAWAPPASSMADRSPQPQRHIMSRSPMVERRLLGQRSPVLERRPLGNFTPPPTYAETLSTAPVASRVRSPPSYSTLYPSSDPKPSHLKGQVAPANKTGILEESMARRGSRKSMFTFVEKPKVTPNPDLLDLVQTADEKRRQRDHGEVGMEEEPFALGAEASNFQQEPIARDRASPAAAEEAVPEWASCLKSPRIQAKPKPKPNQNLSEASGKGAELYARRQSRMEKYVIESSGHAELARCPSPTMSLPSSWKYTTNAPGGFRVASLSPARTPPASLYHGYLPENGVLRPEPTKQQPYQMRPSLYALSPVKEPAKASSRATSSRTPSRTVSPRAASPAKPSSLDLVPNLPRAGLPPSPALPRPSRSSPGLYTAPVQDSLQPTAVSPTYSSDISPVSPSRAWSPRAKQAPRPSFSTRNAGIEAQVWKPSFCFK

The chains behind the UniProt entries cited, without tags or fusion partners. Residues count along the entry.
UniProt P26048, residues 29-451: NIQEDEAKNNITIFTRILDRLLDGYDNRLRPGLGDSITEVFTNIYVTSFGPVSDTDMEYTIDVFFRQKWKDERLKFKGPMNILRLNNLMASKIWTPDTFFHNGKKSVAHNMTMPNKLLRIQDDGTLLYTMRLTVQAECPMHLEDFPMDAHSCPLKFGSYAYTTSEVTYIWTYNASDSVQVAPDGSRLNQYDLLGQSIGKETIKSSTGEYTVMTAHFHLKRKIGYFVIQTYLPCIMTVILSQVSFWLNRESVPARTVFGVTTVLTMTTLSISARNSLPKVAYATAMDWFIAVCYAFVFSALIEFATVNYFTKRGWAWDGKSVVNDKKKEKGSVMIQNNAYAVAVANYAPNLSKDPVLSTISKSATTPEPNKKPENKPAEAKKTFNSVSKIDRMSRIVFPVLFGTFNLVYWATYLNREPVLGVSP
UniProt P62812, residues 28-455: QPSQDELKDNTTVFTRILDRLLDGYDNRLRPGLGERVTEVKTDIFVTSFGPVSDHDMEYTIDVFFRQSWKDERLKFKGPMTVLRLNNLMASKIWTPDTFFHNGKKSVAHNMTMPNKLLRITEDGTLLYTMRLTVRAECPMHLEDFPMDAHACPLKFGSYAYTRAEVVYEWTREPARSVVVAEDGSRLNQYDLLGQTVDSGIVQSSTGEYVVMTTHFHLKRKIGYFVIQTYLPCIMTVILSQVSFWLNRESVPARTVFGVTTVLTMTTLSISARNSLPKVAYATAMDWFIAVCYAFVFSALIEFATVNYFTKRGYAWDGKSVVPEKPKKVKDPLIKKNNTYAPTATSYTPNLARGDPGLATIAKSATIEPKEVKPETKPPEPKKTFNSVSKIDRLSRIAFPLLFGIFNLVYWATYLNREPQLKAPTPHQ

No constants are given. Whether binding was seen depends on the method and setting. In cells and extracts the contact can be indirect. These calls come from enrichment with a bait or labelling near it, and not all partners need be listed.

The first test addresses GABAA receptor α2 subunit modified with pHluorin and 9E10 (myc) epitope on its N-terminus (mouse (knock-in, forebrain)) (UniProt P26048). Kind of test: affinity purification with mass spectrometry; α1 and α2 (pHα2) receptors immunopurified from mouse forebrain plasma membrane fractions, BN-PAGE, 720 kDa species excised, label-free LC-MS/MS; only proteins significantly enriched over control (non-immune IgG, or anti-9E10 in wild type tissue).
In the case of B1, the binding result is “binds”. Take B2: the binding entry was “binds”. Still for that read-out and setting: for B3 the value was “binds”; for B4, “binds”; for B5, “binds”.

The next test concerns the target GABAA receptor α1 subunit (mouse (endogenous in forebrain)) (UniProt P62812). The description is as above.
As to B6, the binding entry is listed as “binds”.

For the origin of these results see PMC9816108.
